A short description of the series: Metabolite quantitation in mouse plasma (QQQ-LC/MS). Conditions: MRM. Type of series: in vivo. The method, then:
Preparation of plasma samples for LC-MS analysis. Plasma was collected from mice via a submandibular bleed into lithium heparin tubes (BD, 365985) and immediately transferred onto ice. The blood was centrifuged at 4° C. at 5000 rpm for 5 min and the top layer of plasma was aliquoted and frozen at −80 °C. To extract polar metabolites from plasma for LC-MS analysis, 150 μl of a 2:1 mixture of acetonitrile/methanol was added to 50 μl of plasma. The mixture was centrifuged at 4° C. for 10 min at 15,000 rpm and the supernatant was transferred to a LC-MS vial.
Targeted metabolomics. Targeted measurements were performed using an Agilent 6470 triple quadrupole LC-MS instrument. MS analysis was performed using AJS in negative mode. […] Quantification of the endogenous metabolite concentrations were performed by generating a standard curve with known concentrations of each metabolite. Metabolite standards were analyzed alongside the plasma samples using the same targeted triple quadrupole LC/MS method. […] The dilution of the plasma during the sample preparation was also taken into account for the quantification.

Molecules are shown by their SMILES.

For the molecule `CC(CO)C(=O)N[C@@H](Cc1ccccc1)C(=O)O` (some centres unmarked) [3-HIB-Phe], the “endogenous presence in mouse plasma” value was “not endogenous metabolites”.

Consider `CCC(O)C(=O)N[C@@H](Cc1ccccc1)C(=O)O` (some centres unmarked) [2-HB-Phe], for which the “endogenous presence in mouse plasma” value is reported as “not endogenous metabolites”.

The values above are taken from patent publication US20260325473A1, “N-Beta-Hydroxybutyryl-Amino Acids and Related Compositions and Methods” (The Board of Trustees of the Leland Stanford Junior …, priority 2023, published 2026).
